Results on 22 targets are retold here after the supplement of paper PMC11006884.

Protein sequences, listed by entry. Tags and fused reporters are not part of them. Lines headed by an entry give the natural chain unless they say otherwise; changes in a name come on top.
UniProt Q13885, whole entry, looked up: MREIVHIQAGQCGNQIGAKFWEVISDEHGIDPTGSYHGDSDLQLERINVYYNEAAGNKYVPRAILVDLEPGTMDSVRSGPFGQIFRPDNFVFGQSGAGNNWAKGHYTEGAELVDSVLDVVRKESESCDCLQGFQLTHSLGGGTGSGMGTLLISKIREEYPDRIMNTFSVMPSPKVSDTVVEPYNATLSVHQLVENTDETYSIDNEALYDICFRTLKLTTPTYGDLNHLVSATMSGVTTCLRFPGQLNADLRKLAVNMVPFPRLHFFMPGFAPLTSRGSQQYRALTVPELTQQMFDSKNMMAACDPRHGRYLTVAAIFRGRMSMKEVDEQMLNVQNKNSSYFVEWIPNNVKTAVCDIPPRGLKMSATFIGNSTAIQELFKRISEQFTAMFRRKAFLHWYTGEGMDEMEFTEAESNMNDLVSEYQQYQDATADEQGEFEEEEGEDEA
UniProt Q14697: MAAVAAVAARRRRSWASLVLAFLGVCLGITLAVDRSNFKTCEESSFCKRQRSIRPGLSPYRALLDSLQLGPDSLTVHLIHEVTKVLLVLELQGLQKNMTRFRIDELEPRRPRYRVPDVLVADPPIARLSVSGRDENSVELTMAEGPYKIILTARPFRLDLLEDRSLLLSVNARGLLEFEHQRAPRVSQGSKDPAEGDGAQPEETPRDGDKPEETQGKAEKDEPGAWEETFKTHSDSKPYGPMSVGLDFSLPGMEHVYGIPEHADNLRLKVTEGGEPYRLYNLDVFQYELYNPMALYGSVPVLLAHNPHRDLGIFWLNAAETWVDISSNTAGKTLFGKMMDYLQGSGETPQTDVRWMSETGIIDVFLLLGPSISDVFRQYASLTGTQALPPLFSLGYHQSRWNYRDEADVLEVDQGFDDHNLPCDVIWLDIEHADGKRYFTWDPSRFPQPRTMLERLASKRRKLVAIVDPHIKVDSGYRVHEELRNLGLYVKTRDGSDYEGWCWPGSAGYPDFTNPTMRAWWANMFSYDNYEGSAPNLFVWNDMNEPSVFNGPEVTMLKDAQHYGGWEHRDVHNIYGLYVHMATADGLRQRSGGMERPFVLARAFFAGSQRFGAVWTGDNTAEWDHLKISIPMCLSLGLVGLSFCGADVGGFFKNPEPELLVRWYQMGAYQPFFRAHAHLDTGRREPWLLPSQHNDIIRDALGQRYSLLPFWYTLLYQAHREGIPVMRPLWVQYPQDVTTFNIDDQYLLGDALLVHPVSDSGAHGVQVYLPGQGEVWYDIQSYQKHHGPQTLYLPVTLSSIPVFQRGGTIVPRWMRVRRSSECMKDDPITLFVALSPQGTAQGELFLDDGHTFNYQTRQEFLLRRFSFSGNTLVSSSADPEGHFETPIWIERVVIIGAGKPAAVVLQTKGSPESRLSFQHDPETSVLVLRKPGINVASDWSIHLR
UniProt Q13643: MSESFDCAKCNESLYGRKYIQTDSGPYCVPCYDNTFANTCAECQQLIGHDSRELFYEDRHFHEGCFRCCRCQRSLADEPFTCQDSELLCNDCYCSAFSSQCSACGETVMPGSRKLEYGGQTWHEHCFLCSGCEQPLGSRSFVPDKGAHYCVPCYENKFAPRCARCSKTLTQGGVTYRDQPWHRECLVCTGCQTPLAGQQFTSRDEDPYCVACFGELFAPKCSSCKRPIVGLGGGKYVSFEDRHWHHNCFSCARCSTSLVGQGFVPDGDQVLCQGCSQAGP
UniProt Q14966: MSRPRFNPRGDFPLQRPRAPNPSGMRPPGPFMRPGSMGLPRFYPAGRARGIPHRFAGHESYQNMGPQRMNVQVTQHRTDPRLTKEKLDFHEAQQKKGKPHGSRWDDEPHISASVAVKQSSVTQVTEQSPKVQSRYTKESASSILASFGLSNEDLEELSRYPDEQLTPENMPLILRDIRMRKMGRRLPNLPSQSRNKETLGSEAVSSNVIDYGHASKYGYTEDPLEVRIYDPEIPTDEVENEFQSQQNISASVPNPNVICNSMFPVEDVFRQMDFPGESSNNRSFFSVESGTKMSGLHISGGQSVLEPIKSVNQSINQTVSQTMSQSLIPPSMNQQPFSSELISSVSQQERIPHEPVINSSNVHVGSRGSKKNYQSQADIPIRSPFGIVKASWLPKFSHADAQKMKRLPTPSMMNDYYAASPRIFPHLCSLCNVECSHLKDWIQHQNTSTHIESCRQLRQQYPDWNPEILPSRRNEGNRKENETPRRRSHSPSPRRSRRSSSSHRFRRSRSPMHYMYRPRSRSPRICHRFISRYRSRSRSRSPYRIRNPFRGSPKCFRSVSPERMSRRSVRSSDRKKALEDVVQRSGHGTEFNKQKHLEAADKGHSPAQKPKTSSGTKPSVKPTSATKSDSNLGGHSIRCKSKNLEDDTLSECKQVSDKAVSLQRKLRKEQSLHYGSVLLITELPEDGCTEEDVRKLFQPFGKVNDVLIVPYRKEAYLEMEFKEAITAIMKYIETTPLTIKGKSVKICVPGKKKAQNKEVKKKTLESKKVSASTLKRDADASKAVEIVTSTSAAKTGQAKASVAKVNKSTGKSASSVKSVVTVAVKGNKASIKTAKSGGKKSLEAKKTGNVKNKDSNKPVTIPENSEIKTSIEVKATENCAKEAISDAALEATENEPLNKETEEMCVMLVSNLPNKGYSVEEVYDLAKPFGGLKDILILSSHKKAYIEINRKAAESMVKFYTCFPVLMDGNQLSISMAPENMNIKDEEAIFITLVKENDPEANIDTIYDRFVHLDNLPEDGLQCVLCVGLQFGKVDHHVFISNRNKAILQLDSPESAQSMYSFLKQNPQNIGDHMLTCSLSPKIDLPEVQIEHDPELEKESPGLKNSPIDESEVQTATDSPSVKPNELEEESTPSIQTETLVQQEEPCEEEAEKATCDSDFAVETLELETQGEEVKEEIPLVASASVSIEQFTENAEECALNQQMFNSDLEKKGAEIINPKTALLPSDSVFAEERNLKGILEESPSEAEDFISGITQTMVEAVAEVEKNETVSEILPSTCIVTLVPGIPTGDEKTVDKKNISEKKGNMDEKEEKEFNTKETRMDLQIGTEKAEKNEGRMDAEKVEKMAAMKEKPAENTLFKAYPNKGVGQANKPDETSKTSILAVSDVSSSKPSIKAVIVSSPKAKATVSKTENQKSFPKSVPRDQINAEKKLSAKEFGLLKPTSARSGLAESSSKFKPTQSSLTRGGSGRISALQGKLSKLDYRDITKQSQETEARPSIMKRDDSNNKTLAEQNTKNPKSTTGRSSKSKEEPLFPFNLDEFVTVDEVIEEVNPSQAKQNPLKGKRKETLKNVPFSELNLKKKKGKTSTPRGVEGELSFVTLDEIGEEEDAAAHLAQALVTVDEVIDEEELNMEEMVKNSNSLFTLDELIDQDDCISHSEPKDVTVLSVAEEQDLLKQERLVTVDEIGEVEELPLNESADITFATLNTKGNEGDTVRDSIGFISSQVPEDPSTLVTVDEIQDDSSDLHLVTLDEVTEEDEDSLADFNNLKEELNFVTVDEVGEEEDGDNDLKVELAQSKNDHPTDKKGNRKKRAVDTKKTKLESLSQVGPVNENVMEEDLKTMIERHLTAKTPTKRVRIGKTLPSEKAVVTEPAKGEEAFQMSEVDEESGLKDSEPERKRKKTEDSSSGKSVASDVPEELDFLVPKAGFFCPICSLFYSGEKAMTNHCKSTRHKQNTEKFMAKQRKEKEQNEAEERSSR
UniProt Q13620, whole entry: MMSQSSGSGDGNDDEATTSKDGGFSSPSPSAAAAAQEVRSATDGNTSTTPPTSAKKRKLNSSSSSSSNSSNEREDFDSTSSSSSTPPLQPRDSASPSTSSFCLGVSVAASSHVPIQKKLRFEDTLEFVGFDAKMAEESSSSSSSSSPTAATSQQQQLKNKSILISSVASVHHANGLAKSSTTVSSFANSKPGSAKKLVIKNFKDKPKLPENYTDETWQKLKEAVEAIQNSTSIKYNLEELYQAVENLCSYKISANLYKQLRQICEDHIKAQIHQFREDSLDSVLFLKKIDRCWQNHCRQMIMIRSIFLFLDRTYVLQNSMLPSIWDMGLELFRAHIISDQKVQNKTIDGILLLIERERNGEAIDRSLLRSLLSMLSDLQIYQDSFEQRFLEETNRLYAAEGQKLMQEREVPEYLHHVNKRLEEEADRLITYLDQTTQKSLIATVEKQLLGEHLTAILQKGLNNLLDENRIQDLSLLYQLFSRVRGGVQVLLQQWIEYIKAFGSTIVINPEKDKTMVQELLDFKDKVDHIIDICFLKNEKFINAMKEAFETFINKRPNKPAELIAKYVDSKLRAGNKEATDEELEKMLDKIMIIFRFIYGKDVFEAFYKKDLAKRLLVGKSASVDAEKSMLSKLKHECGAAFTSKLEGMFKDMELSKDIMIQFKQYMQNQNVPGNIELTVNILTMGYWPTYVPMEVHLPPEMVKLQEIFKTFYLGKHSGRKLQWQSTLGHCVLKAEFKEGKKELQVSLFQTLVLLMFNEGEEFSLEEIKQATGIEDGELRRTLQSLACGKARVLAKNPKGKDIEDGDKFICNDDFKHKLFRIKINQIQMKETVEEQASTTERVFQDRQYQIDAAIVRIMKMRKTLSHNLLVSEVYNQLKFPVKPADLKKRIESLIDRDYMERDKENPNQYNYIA
UniProt Q14692: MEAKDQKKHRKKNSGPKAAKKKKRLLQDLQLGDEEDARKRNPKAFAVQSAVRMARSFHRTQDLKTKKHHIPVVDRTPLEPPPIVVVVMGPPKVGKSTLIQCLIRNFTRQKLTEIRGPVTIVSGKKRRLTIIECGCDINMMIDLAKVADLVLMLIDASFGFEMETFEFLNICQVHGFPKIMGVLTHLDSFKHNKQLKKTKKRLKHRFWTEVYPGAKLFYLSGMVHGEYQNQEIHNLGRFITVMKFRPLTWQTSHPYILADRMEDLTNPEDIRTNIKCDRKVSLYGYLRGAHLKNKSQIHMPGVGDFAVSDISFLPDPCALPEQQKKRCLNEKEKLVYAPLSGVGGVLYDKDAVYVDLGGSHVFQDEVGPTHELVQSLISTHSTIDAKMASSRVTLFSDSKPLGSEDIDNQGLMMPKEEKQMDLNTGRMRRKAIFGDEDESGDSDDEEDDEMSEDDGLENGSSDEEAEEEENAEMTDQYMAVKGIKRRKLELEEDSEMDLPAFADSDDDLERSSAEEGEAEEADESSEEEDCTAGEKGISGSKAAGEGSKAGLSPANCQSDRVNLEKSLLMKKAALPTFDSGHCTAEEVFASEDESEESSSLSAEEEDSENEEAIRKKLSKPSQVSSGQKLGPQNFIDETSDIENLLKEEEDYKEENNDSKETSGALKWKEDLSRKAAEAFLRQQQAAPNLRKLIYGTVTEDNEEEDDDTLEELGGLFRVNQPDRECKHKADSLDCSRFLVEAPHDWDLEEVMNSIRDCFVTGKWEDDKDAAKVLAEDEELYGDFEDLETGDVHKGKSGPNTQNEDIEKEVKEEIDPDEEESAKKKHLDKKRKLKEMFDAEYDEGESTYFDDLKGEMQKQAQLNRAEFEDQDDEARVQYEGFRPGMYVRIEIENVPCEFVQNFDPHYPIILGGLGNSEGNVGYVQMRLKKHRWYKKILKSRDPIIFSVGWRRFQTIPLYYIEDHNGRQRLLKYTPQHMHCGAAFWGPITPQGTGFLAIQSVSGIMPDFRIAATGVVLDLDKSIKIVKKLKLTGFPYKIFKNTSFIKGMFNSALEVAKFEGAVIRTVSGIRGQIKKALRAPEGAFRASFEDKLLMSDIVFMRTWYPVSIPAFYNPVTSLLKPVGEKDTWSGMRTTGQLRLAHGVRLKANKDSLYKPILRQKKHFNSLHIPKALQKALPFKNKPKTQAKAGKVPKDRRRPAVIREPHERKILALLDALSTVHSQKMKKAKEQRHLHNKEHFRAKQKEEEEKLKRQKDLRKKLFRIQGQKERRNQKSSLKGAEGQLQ
UniProt Q14684: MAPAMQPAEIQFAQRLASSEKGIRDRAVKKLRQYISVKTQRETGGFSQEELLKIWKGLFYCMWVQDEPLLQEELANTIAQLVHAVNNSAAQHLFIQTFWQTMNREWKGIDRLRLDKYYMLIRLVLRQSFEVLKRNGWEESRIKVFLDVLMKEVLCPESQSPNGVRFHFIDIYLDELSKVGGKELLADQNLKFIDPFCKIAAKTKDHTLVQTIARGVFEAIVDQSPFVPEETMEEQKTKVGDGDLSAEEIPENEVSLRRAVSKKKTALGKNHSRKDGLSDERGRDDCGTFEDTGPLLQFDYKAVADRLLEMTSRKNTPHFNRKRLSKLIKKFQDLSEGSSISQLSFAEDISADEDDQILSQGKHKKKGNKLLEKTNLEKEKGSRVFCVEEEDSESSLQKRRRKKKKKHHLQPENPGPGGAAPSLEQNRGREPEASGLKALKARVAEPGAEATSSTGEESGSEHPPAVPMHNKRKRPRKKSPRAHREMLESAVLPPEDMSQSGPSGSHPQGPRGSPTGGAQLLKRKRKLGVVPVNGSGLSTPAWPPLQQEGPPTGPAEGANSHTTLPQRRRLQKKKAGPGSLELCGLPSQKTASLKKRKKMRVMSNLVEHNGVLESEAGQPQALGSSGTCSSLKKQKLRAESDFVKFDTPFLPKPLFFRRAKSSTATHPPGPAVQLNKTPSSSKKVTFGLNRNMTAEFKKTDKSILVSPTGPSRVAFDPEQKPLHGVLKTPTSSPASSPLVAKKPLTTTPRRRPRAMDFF

The list shows a part of the results, in another mix than the full data.

Compound in this test: COC(=O)C#Cc1ccccc1 [methyl 3-phenylpropiolate]
Briefly: log2 ratio of iodoacetamide-alkyne labeling of the cysteine site, DMSO over compound (competition); higher = stronger covalent engagement of the cysteine by the compound, active = 1 or more. The following applies: 500 µM; treatment time 1 h; system: HEK293T cell lysate. In a few lines:
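Three replicates, each with duplicate channels, were prepared from HEK293T lysate (2 mg/mL) treated with vehicle or electrophile at 500 µM for 1 h at ambient temperature. Iodoacetamide alkyne was then applied for 1 h, and samples were clicked to sCIP-TMT reagents, pooled, trypsin-digested overnight at 37 °C, enriched on streptavidin, acid-eluted and analysed on Orbitrap Eclipse LC-MS/MS with FAIMS, with FragPipe quantification. The log2 competition ratio per cysteine is the mean control-channel divided by the mean compound-channel reporter intensity. Cysteines quantified in only one replicate were left out.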
On to SQSTM1 C289 (UniProt Q13501), for which the “log2 ratio of iodoacetamide-alkyne labeling” value (shortened to “log2 ratio”) is inactive: 0.896.
In the case of UniProt Q13885_C129 it was inactive: 0.82; in that of EIF3A C198 (UniProt Q14152), inactive: 0.211; in that of PUM1 C5 (UniProt Q14671), inactive: 0.834.
In the case of GANAB C423 (UniProt Q14697) it was inactive: 0.019; in that of FHL3 C150 (UniProt Q13643), inactive: 0.146; in that of ZNF638 C1654 (UniProt Q14966), inactive: 0.188.
The result for TRIM25 C186 (UniProt Q14258) reads inactive: 0.237; that for HNRNPD C126 (UniProt Q14103), inactive: 0.291.
On to SPTAN1 C1930 (UniProt Q13813), for which the “log2 ratio” value is inactive: 0.167.
Turning to FHL3 C153 (UniProt Q13643), the “log2 ratio” value was inactive: 0.146.
The result for UniProt Q13620_C102 reads inactive: 0.0449; that for FRG1 C159 (UniProt Q14331), inactive: 0.373.
The result for SPTAN1 C2233 (UniProt Q13813) reads inactive: 0.333; that for BMS1 C725 (UniProt Q14692), active: 1.27.
For the target RRP1B C628 (UniProt Q14684), the “log2 ratio” value is inactive: 0.838.
For DYNC1H1 C633 (UniProt Q14204), the “log2 ratio” value is inactive: 0.785.
In the case of DDX39B C198 (UniProt Q13838) it was inactive: -0.129; in that of PDCD11 C361 (UniProt Q14690), inactive: 0.384; in that of EIF3A C78 (UniProt Q14152), inactive: 0.382.
In the case of SHROOM2 C836 (UniProt Q13796) it was inactive: 0.986.
Take SQSTM1 C27 (UniProt Q13501): the “log2 ratio” value is inactive: 0.699.
